Test results reported in patent publication US20100041694A1, “AGRICULTURAL COMPOSITION FOR CONTROLLING OR PREVENTING PLANT DISEASES CAUSED BY PLANT PATHOGENIC MICROBES” (Sumitomo Chemical Company, Limited, priority 2007, published 2010).
Some entries share one result that the patent states for a list of compounds.

Experiments:
Type in all cases: in vivo
Sclerotinia sclerotiorum = experiment: Preventing infection by cucumber Sclerotinia rot, foliage application; conditions: cucumber (Sagami-Hanjiro), flowable formulation 500 ppm foliage application, then inoculation; 18° C. high humidity 4 days
Fusarium oxysporum = experiment: Preventing infection by tomato wilt by soil treatment (irrigation); conditions: tomato (Patio) in contaminated soil, 10 mg compound per pot by soil irrigation, 1 month
Gibberella fujikuroi = experiment: Rice bakanae disease, seed treatment; conditions: contaminated unhulled rice, seed treatment 200 g compound per 100 kg seeds, 1 month
Gaeumannomyces graminis = experiment: Malt damping off, seed treatment; conditions: contaminated malt seeds, seed treatment 200 g compound per 100 kg seeds, 1 month
Botrytis cinerea = experiment: Preventing infection by cucumber gray mold, foliage application; conditions: cucumber (Sagami-Hanjiro), flowable formulation 500 ppm foliage application, then inoculation; 12° C. high humidity 5 days
[1] = system: Verticillium albo-atrum, V. dahliae, V. nigrescens; experiment: Potato blue stem, soil irrigation treatment; conditions: potato (Danshaku) in contaminated soil, 10 mg compound per pot by soil irrigation, 2 months

SMILES | infected areas of treated plants relative to infected areas of untreated plants (Sclerotinia sclerotiorum) [%] | blotches in treated plants (Fusarium oxysporum) | growth of treated plants (Fusarium oxysporum) | growth of treated plants (Gibberella fujikuroi) | growth of treated plants (Gaeumannomyces graminis) | infected areas of treated plants relative to infected areas of untreated plants (Botrytis cinerea) [%] | blotches in treated plants [1] | growth of treated plants [1]
CC(C)=Cc1cccc(CNC(=O)c2ccc3ncccc3c2)c1 [Compound 23] | ≤ 10 | no blotches are found | favorably grow at a level equivalent to that of plants that grow have in noncontaminated soil | favorably grow at a level equivalent to that of plants that have grown from noncontaminated unhulled rice | favorably grow at a level equivalent to that of plants that grow from noncontaminated seeds | ≤ 10 | no blotches are found | favorably grow at a level equivalent to that of plants that grow in noncontaminated soil
CC(C)Cc1cccc(CNC(=O)c2ccc3ncccc3c2)c1 [Compound 24] | ≤ 10 | no blotches are found | favorably grow at a level equivalent to that of plants that grow have in noncontaminated soil | favorably grow at a level equivalent to that of plants that have grown from noncontaminated unhulled rice | favorably grow at a level equivalent to that of plants that grow from noncontaminated seeds | ≤ 10 | no blotches are found | favorably grow at a level equivalent to that of plants that grow in noncontaminated soil
O=C(Cc1ccc(Oc2ccccc2)cc1)Nc1ccc2ncccc2c1 [Compound 25] | ≤ 10 | no blotches are found | favorably grow at a level equivalent to that of plants that grow have in noncontaminated soil | favorably grow at a level equivalent to that of plants that have grown from noncontaminated unhulled rice | favorably grow at a level equivalent to that of plants that grow from noncontaminated seeds | ≤ 10 | no blotches are found | favorably grow at a level equivalent to that of plants that grow in noncontaminated soil
COc1cccc(CC(=O)Nc2ccc3ncccc3c2)c1 [Compound 26] | ≤ 10 | no blotches are found | favorably grow at a level equivalent to that of plants that grow have in noncontaminated soil | favorably grow at a level equivalent to that of plants that have grown from noncontaminated unhulled rice | favorably grow at a level equivalent to that of plants that grow from noncontaminated seeds | ≤ 10 | no blotches are found | favorably grow at a level equivalent to that of plants that grow in noncontaminated soil
O=C(NCc1ccc(Oc2ccccc2)s1)c1ccc2ncccc2c1 [Compound 29] | ≤ 10 | no blotches are found | favorably grow at a level equivalent to that of plants that grow have in noncontaminated soil | favorably grow at a level equivalent to that of plants that have grown from noncontaminated unhulled rice | favorably grow at a level equivalent to that of plants that grow from noncontaminated seeds | ≤ 10 | no blotches are found | favorably grow at a level equivalent to that of plants that grow in noncontaminated soil
